This passage reports binding results from paper PMC12591119.

Sequences of proteins named here, by UniProt entry; tags and fusion partners are left off.
UniProt Q9BYT3: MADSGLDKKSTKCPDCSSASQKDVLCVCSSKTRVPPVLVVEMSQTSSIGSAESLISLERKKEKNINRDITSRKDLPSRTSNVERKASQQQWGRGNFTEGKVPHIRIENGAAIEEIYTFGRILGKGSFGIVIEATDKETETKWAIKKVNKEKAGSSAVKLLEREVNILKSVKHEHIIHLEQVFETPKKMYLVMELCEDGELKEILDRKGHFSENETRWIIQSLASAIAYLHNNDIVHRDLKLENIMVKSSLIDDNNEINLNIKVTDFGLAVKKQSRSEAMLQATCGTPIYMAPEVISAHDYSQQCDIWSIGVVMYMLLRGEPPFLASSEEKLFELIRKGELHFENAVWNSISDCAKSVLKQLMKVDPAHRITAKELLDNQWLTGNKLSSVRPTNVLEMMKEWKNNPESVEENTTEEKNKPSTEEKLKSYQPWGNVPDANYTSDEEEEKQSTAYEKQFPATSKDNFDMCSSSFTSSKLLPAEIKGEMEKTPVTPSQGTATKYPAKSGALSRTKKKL

These are yes or no findings as the source states them, for the method shown. Binding seen in cells or lysates may run through a third protein. Some results given as binding are weak or reduced against the parent protein; the word gives no strength. Where a sequence is shown, tags or fusion partners need not be part of it.

The assay addresses Flag-STK33 (serine/threonine kinase 33) (UniProt Q9BYT3). Description: co-IP; 293T cells transfected with Flag-STK33 and HA-CCAR1; immunoprecipitation with anti-Flag or anti-HA antibodies, lysates and immunoprecipitates blotted.

B1: HA-CCAR1 (protein, UniProt Q8IX12 1-1150)
chain: MAQFGGQKNPPWATQFTATAVSQPAALGVQQPSLLGASPTIYTQQTALAAAGLTTQTPANYQLTQTAALQQQAAAAAAALQQQYSQPQQALYSVQQQLQQPQQTLLTQPAVALPTSLSLSTPQPTAQITVSYPTPRSSQQQTQPQKQRVFTGVVTKLHDTFGFVDEDVFFQLSAVKGKTPQVGDRVLVEATYNPNMPFKWNAQRIQTLPNQNQSQTQPLLKTPPAVLQPIAPQTTFGVQTQPQPQSLLQAQISAASITPLLQTQPQPLLQQPQQKAGLLQPPVRIVSQPQPARRLDPPSRFSGRNDRGDQVPNRKDDRSRERERERRRSRERSPQRKRSRERSPRRERERSPRRVRRVVPRYTVQFSKFSLDCPSCDMMELRRRYQNLYIPSDFFDAQFTWVDAFPLSRPFQLGNYCNFYVMHREVESLEKNMAILDPPDADHLYSAKVMLMASPSMEDLYHKSCALAEDPQELRDGFQHPARLVKFLVGMKGKDEAMAIGGHWSPSLDGPDPEKDPSVLIKTAIRCCKALTGIDLSVCTQWYRFAEIRYHRPEETHKGRTVPAHVETVVLFFPDVWHCLPTRSEWETLSRGYKQQLVEKLQGERKEADGEQDEEEKDDGEAKEISTPTHWSKLDPKTMKVNDLRKELESRALSSKGLKSQLIARLTKQLKVEEQKEEQKELEKSEKEEDEDDDRKSEDDKEEEERKRQEEIERQRRERRYILPDEPAIIVHPNWAAKSGKFDCSIMSLSVLLDYRLEDNKEHSFEVSLFAELFNEMLQRDFGVRIYKSLLSLPEKEDKKEKDKKSKKDERKDKKEERDDETDEPKPKRRKSGDDKDKKEDRDERKKEDKRKDDSKDDDETEEDNNQDEYDPMEAEEAEDEEDDRDEEEMTKRDDKRDINRYCKERPSKDKEKEKTQMITINRDLLMAFVYFDQSHCGYLLEKDLEEILYTLGLHLSRAQVKKLLNKVVLRESCFYRKLTDTSKDEENHEESESLQEDMLGNRLLLPTPTVKQESKDVEENVGLIVYNGAMVDVGSLLQKLEKSEKVRAEVEQKLQLLEEKTDEDEKTILNLENSNKSLSGELREVKKDLSQLQENLKISENMNLQFENQMNKTIRNLSTVMDEIHTVLKKDNVKNEDKDQKSKENGASV
Regarding B1, the binding result is “binds”.
